Reference: US9566290B2, “Boron-containing small molecules” (Anacor Pharmaceuticals, Inc., priority 2005, dated 2017)
At least one compound was matched to its structure with a doubt left.

System: S. cerevisiae C10 resistant mutants (CDC60 editing domain mutations)
Assay: MIC (NCCLS M27), spontaneous and EMS induced C10 resistant mutants
Type: cell-based, Saccharomyces cerevisiae
Experimental: The haploid Saccharomyces cerevisiae strain ATCC 201388 was used in the selection of C10 resistant mutants. Spontaneous and EMS-induced resistant mutants were isolated from YPD agar plates containing 4×, 8×, 16×MIC of C10. All minimal inhibitory concentrations (MIC) were determined using NCCLS protocol M27 with the exception of using YPD or synthetic defined media. All yeast and molecular genetic manipulations were essentially performed as described by Guthrie C., et al., Methods in Enzymology, 350: Part B, (2002).
Resistant mutants appeared after 2 d incubation at 30° C. Frequency of resistance was determined by dividing the number of resistant mutants by the total number of cells plated as determined by plating dilutions of the overnight culture on YPD plates.
A 2.5 mL of the overnight culture, which was grown in YPD media, was centrifuged at 700×g for 5 minutes. The cell pellet was resuspended in 10 mL 50 mM potassium phosphate buffer, pH 7.0. The cell suspension was centrifuged again and the cell pellet was resuspended in phosphate buffer to obtain a cell density of 5×10^7 cells/mL as determined by counting the cells using a Petroff Hausser Counting Chamber (Horsham, Pa. USA). The cell suspension was shaken with 300 μL of EMS (Alfa Aesar, Ward Hill, Mass., USA) for 30 min. at 30° C. […]

Compound: CCC(C)n1ncn(-c2ccc(N3CCN(c4ccc(OCC5COC(Cn6cncn6)(c6ccc(Cl)cc6Cl)O5)cc4)CC3)cc2)c1=O (stereo not shown) [Itraconazole]
- resistance of C10 resistant mutants to other antifungals, in words: not resistant
